In the supplement of paper PMC10849652:
Some of the results follow.

By UniProt entry, the sequences of proteins in these tests, tags left out. Where a name states a change or a piece, a line headed by the entry shows the natural chain unless it says otherwise.
UniProt Q99759: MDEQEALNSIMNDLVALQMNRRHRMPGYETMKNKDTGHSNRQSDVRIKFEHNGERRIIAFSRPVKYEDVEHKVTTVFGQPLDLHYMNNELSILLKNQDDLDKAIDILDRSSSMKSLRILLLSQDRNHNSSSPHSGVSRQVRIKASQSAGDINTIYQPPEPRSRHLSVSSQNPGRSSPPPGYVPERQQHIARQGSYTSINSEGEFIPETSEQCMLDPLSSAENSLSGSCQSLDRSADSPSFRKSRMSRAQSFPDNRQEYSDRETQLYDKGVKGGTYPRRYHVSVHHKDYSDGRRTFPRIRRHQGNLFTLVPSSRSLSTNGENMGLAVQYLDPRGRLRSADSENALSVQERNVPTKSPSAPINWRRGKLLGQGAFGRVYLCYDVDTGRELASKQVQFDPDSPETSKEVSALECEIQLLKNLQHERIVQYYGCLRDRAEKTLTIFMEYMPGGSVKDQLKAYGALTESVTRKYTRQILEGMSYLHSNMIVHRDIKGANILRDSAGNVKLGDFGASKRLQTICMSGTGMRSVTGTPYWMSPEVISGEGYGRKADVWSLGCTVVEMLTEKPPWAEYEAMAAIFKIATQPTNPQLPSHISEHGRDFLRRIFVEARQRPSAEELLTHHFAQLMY
UniProt Q5SRI9: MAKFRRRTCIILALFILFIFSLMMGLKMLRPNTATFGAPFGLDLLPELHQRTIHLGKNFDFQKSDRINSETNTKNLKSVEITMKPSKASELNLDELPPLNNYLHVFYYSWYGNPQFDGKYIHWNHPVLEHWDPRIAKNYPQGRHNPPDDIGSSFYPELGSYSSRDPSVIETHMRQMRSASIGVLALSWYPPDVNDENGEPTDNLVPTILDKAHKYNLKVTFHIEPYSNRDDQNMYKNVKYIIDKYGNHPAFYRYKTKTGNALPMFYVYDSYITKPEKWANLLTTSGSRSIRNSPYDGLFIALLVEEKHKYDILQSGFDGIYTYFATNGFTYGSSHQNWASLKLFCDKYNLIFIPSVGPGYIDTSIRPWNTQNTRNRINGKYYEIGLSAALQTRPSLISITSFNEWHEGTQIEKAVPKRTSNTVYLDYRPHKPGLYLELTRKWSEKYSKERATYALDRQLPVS
UniProt Q9Y5V3: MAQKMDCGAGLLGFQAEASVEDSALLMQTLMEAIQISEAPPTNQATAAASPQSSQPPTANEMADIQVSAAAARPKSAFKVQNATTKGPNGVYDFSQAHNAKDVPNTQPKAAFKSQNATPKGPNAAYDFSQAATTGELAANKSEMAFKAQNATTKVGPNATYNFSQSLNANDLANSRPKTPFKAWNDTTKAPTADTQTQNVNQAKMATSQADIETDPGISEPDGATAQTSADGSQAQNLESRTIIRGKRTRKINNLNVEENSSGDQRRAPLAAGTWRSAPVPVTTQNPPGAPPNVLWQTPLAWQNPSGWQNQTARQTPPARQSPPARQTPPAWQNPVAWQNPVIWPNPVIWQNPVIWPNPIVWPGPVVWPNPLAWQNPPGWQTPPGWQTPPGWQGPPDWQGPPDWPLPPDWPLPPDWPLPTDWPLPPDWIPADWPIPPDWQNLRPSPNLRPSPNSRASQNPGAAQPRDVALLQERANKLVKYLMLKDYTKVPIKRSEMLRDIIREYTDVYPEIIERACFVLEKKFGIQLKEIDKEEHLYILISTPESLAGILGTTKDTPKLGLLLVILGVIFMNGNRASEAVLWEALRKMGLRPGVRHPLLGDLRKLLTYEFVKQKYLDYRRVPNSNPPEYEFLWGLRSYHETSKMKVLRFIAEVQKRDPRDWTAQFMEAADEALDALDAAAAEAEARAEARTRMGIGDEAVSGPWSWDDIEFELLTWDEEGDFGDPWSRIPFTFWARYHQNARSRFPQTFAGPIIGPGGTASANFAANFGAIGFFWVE
UniProt Q15013: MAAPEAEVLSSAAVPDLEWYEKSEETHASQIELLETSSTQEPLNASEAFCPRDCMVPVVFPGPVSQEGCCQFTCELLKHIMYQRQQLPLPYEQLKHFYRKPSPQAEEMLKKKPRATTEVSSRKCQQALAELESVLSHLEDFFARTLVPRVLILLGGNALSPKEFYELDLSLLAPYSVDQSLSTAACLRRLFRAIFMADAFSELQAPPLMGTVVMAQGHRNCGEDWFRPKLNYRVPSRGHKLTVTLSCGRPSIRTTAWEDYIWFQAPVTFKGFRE
UniProt P53778: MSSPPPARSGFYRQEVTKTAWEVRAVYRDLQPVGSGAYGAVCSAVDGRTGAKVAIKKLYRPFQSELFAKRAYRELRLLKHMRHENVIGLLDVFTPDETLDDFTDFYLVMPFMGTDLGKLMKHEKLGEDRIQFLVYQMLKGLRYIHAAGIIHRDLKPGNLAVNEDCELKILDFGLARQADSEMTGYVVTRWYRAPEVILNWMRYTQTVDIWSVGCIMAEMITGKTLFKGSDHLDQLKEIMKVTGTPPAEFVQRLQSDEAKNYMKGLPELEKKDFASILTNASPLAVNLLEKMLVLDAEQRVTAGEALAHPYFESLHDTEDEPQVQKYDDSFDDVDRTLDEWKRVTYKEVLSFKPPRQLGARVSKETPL
UniProt Q13163: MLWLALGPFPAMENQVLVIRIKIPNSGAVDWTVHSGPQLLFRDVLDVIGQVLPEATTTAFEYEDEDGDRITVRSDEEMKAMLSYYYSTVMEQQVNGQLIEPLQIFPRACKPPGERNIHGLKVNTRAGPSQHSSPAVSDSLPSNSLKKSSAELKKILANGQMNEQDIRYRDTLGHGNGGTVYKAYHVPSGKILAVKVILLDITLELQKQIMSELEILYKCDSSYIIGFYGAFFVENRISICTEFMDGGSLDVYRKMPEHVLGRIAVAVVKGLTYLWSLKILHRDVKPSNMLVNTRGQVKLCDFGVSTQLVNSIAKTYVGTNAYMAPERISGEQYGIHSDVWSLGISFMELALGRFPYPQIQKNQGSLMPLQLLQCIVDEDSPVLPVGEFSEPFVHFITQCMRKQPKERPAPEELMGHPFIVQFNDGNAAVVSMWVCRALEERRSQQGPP
UniProt Q8IW41: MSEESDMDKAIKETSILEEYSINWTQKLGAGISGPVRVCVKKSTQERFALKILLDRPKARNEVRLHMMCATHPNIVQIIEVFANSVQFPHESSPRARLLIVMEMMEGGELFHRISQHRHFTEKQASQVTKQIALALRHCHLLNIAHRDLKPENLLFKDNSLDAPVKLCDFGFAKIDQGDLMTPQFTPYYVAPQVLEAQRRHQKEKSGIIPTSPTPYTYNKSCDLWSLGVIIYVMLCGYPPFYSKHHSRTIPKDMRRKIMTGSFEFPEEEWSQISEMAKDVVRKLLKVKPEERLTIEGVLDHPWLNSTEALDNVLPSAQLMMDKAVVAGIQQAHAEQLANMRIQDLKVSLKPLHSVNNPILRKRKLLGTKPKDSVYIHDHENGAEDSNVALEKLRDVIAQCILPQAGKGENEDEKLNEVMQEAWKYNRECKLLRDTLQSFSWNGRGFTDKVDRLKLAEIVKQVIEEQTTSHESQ
UniProt P43358: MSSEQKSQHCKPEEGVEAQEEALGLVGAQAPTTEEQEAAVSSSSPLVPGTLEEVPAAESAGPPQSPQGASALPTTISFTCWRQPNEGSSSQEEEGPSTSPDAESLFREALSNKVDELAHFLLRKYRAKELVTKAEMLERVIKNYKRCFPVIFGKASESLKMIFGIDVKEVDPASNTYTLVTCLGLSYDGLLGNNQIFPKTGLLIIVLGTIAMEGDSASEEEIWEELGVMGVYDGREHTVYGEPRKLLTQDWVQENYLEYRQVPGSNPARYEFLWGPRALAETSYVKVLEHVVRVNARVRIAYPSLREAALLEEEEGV
UniProt Q9NX47: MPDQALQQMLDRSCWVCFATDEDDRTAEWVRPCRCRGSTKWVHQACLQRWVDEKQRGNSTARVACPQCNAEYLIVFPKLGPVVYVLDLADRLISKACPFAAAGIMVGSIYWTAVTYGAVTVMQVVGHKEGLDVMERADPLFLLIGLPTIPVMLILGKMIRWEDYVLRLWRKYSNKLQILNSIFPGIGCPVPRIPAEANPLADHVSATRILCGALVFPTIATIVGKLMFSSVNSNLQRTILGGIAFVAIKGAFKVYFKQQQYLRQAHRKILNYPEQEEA
UniProt Q92585: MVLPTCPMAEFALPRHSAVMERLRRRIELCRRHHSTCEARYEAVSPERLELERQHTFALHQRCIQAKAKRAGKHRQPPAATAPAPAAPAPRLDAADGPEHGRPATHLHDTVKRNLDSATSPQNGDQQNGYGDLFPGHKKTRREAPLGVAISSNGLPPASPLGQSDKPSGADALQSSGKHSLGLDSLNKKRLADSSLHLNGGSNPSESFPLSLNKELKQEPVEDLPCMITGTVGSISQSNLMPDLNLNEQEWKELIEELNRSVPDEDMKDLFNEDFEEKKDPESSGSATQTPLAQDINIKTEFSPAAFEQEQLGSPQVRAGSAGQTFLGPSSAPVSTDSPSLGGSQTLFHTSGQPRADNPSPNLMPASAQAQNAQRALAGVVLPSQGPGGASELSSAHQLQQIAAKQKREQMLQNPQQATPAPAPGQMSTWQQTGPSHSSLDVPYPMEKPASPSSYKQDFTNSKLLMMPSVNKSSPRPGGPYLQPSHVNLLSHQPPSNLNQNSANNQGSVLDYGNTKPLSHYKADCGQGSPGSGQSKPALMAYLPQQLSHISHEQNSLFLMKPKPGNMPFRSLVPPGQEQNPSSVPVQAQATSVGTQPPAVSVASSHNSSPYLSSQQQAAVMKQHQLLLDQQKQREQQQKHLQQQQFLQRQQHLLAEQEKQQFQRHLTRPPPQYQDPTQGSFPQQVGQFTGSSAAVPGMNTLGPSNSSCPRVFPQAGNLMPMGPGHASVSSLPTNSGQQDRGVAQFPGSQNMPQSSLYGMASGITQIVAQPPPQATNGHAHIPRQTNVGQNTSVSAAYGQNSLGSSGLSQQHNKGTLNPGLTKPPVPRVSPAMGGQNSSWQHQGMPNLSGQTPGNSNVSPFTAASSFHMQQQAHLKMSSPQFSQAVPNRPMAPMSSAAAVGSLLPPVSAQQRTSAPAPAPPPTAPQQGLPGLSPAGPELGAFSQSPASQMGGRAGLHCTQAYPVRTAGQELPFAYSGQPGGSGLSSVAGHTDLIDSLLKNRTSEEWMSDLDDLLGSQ
UniProt Q8IZL2, whole entry, looked up: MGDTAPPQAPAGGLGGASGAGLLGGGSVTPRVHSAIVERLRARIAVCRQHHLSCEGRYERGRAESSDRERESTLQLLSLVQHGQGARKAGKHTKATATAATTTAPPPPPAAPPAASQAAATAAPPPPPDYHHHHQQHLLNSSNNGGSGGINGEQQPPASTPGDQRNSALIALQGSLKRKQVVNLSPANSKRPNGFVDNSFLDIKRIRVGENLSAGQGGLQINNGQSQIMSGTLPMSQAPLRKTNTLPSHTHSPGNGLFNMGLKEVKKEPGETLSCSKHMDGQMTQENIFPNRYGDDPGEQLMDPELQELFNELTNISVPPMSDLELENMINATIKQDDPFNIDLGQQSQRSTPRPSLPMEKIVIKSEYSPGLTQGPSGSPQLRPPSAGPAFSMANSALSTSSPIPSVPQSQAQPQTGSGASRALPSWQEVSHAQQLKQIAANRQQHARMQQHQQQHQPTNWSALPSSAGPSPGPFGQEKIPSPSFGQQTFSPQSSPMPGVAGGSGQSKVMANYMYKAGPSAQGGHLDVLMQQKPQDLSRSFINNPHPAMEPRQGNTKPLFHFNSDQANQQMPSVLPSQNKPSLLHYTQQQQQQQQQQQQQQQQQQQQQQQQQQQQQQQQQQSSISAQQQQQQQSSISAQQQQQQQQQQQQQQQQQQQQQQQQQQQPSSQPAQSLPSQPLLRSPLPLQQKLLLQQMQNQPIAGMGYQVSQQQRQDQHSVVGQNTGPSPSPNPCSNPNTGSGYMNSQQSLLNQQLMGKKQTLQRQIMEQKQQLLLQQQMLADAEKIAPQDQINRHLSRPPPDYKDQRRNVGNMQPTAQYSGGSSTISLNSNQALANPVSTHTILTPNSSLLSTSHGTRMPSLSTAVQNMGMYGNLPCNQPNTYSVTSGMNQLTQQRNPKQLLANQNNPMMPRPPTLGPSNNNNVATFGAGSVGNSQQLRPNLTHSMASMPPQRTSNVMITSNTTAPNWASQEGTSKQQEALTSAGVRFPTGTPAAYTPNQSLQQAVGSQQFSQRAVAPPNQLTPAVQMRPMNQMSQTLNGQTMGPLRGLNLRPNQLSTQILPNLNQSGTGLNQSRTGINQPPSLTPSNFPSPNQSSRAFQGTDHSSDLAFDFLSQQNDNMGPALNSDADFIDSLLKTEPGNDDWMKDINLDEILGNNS

Key:
Assay in all cases: log2 fold change, soluble protein after heating vs DMSO (PISA); higher = thermal stabilisation; K562 lysate, 10 uM; active = over 0.2 and 3.5 SD of the protein, either way, in both replicates (recomputed)
[1] = compound: C#Cc1cccc(Nc2ncnc3cc(OCCOC)c(OCCOC)cc23)c1 [erlotinib]
Procedure, shortened: (§1)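 The values are log-two fold changes in thermal stability compared with solvent controls and come from duplicates. They were obtained by TMTpro 16plex LC-MS/MS, with channel sums equalised, on the supernatant after 21,000xg for 90 min. That supernatant came from crude K562 extract at 1 mg/mL protein treated with 10 μM compound for 30 min, heated for 3 min across 48°C-58°C, pooled and brought to 0.5% NP-40 at 4°C.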

[2] = compound: C/C(=N\NC(=O)C1=CC(=CC=C1)S(=O)(=O)N2CCOCC2)/C3=C(C=CC(=C3)Cl)O
Procedure, shortened: as §1

[3] = compound: C1=CC(=CC=C1C2=NC3=C(N2)C=C(C=C3)C(=O)N)OC4=CC=C(C=C4)Cl
Procedure, shortened: as §1

[4] = compound: C1=CC2=C(C=CC(=C2)/C=C\3/C(=O)NC(=NCC4=CC=CS4)S3)N=C1
Procedure, shortened: as §1

[5] = compound: C1=CC2=NC=CN=C2C=C1/C=C/3\C(=O)NC(=O)S3
Procedure, shortened: as §1

[6] = compound: C1=CC=C(C=C1)C2=NC(=C(N2)C3=CC=NC=C3)C4=CC(=C(C=C4)Cl)O
Procedure, shortened: as §1

[7] = compound: C1=CC=C2C(=C1)C3=NNC4=CC=CC(=C43)C2=O
Procedure, shortened: as §1

[8] = compound: C1CCN(C1)C(=O)NC2=CC=CC(=C2)NC3=NC=C(C(=N3)NCCC4=CN=CN4)Br
Procedure, shortened: as §1

[9] = compound: C1CN(CCC1(CC2=CC=C(C=C2)Cl)N)C3=NC=NC4=C3C=CN4
Procedure, shortened: as §1

[10] = compound: C1COCCN1CCN2C3=CC=CC=C3N=C2NC(=O)C4=CC(=CC=C4)[N+](=O)[O-] [IRAK-1-4 Inhibitor I]
Procedure, shortened: as §1

[11] = compound: C=CC(=O)N1CCC[C@@H](n2nc(-c3ccc(Oc4ccccc4)cc3)c3c(N)ncnc32)C1 [ibrutinib]
Procedure, shortened: as §1

[12] = compound: CC(=O)c1cnc2ccc(-c3cc(Cl)c(O)c(Cl)c3)nc2c1N[C@H]1CC[C@H](CN(C)C)CC1
Procedure, shortened: as §1

[13] = compound: CC(C)(C)Cn1c(N)nc2ccc(-c3[nH]c(C(C)(C)C)nc3-c3ccc(F)cc3)nc21 [ralimetinib]
Procedure, shortened: as §1

[14] = compound: CC(C)(O)CC(=O)NCCn1ccc2ncnc(Nc3ccc(Oc4cccc(C(F)(F)F)c4)c(Cl)c3)c21
Procedure, shortened: as §1

[15] = compound: CC(C)C1=C2N=C(C=C(N2N=C1)NCC3=CC=CC=C3)NCCCCCCN
Procedure, shortened: as §1

[16] = compound: CC1=C(C(CC(=O)N1)C2=CC=C(C=C2)C(F)(F)F)C(=O)NC3=C(C=C4C(=C3)C=NN4)F
Procedure, shortened: as §1

[17] = compound: CC1=C(C2=C(C=C1)C(=O)C3=CC=CC=C3N2CCCN)C
Procedure, shortened: as §1

[18] = compound: CC1=C(C=C(C=C1)NC(=O)C2=CC(=CC=C2)C(C)(C)C#N)NC3=CC4=C(C=C3)N=CN(C4=O)C
Procedure, shortened: as §1

[19] = compound: CC1=C(C=C(C=C1)NC(=O)C2=CC(=CC=C2)N(C)C)NC(=O)C3=CC=C(C=C3)O
Procedure, shortened: as §1

[20] = compound: CC1=CC=C(C=C1)SC2=C3C=C(SC3=CN=C2)C(=O)N
Procedure, shortened: as §1

Row | Target | log2 fold change [1] | log2 fold change [2] | log2 fold change [3] | log2 fold change [4] | log2 fold change [5] | log2 fold change [6] | log2 fold change [7] | log2 fold change [8] | log2 fold change [9] | log2 fold change [10] | log2 fold change [11] | log2 fold change [12] | log2 fold change [13] | log2 fold change [14] | log2 fold change [15] | log2 fold change [16] | log2 fold change [17] | log2 fold change [18] | log2 fold change [19] | log2 fold change [20]
1 | MAP1LC3B2 (UniProt A6NCE7) | inactive: -0.004 | inactive: 0.018 | inactive: -0.028 | inactive: -0.027 | inactive: 0.011 | inactive: 0.001 | inactive: -0.011 | inactive: 0.029 | inactive: 0.018 | inactive: -0.002 | inactive: 0.001 | inactive: 0.031 | inactive: -0.071 | inactive: 0.016 | inactive: -0.004 | inactive: -0.018 | inactive: -0.015 | inactive: -0.044 | inactive: -0.062 | inactive: 0.021
2 | MAP3K3 isoform 2 (UniProt Q99759) | inactive: -0.121 | inactive: -0.088 | inactive: 0.083 | inactive: 0.177 |  | inactive: 0.009 | inactive: 0.282 | inactive: -0.055 | inactive: -0.082 | inactive: -0.131 |  |  | inactive: 0.015 | inactive: 0.004 | inactive: -0.051 | inactive: -0.283 | inactive: 0.119 | inactive: -0.149 | inactive: 0.052 | 
3 | MANEA (UniProt Q5SRI9) | inactive: -0.079 | inactive: -0.119 | inactive: 0.076 | inactive: 0.089 | inactive: 0.027 | inactive: 0.118 | inactive: -0.092 | inactive: -0.014 | inactive: 0.016 | inactive: 0.041 | inactive: 0 | inactive: 0.038 | inactive: 0.024 | inactive: -0.1 | inactive: 0.041 |  | inactive: -0.009 | inactive: 0.037 | inactive: 0.114 | inactive: 0.068
4 | MAGED1 isoform 2 (UniProt Q9Y5V3) | inactive: 0.082 | inactive: 0.292 | inactive: 0.148 | inactive: -0.208 | inactive: -0.126 | inactive: -0.025 | inactive: -0.001 |  |  | inactive: 0.084 | inactive: 0.112 | inactive: -0.005 | inactive: 0.018 | inactive: -0.005 | inactive: -0.059 | inactive: 0.063 |  | inactive: 0.012 | inactive: 0.088 | inactive: 0.01
5 | MAD2L1BP isoform 3 (UniProt Q15013) | inactive: 0.067 | inactive: -0.081 | inactive: 0.002 | inactive: 0.078 | inactive: -0.015 | inactive: 0.005 | inactive: 0.063 | inactive: -0.029 | active: 0.263 | inactive: -0.002 | inactive: -0.016 | inactive: -0.099 | inactive: 0.038 | inactive: 0.015 | inactive: -0.037 | inactive: 0.107 | inactive: -0.054 | inactive: 0.005 | inactive: -0.011 | inactive: -0.05
6 | MAPK12 (UniProt P53778) | inactive: 0 | inactive: -0.026 | inactive: 0.009 | inactive: 0.016 | inactive: 0.041 | inactive: 0.023 | inactive: 0.001 | inactive: -0.058 | inactive: 0.019 | inactive: -0.048 | inactive: 0.049 |  | inactive: -0.001 | inactive: -0.029 | inactive: -0.027 | inactive: 0.074 | inactive: 0.08 | inactive: 0.002 | inactive: -0.012 | 
7 | MAP2K5 (UniProt Q13163) | inactive: 0.16 | inactive: 0.153 | inactive: -0.024 | inactive: 0.142 | inactive: -0.097 | inactive: -0.015 | inactive: 0.06 | inactive: -0.007 | inactive: -0.024 | inactive: 0.144 | inactive: 0.007 | inactive: -0.013 | inactive: 0.103 | inactive: -0.075 | inactive: -0.078 | inactive: -0.037 | inactive: -0.208 | inactive: 0.235 | inactive: 0.052 | inactive: -0.211
8 | MARF1 (UniProt Q9Y4F3) | inactive: 0.025 | inactive: 0.231 | inactive: 0.043 | inactive: -0.157 | inactive: 0.122 | inactive: 0.019 | inactive: 0.073 | inactive: -0.111 | inactive: -0.035 | inactive: -0.003 | inactive: 0.027 |  | inactive: 0.034 | inactive: -0.042 | inactive: -0.045 | inactive: -0.021 | inactive: 0.037 | inactive: 0.004 | inactive: 0.01 | 
9 | MAPKAPK5 (UniProt Q8IW41) | inactive: -0.058 | inactive: -0.045 | inactive: 0.016 | inactive: 0.12 | inactive: 0.007 | inactive: -0.024 | active: 0.276 | inactive: 0.035 | inactive: 0.031 | inactive: -0.049 | inactive: -0.001 | inactive: -0.008 | inactive: -0.024 | inactive: -0.012 | inactive: 0 | inactive: -0.057 | inactive: -0.01 | inactive: 0.034 | inactive: 0.048 | inactive: -0.066
10 | MAGEA4 (UniProt P43358) | inactive: 0.004 | inactive: 0.028 | inactive: 0.015 | inactive: 0.095 |  | inactive: -0.015 | inactive: -0.078 | inactive: -0.024 | inactive: -0.049 | inactive: 0.024 |  | inactive: -0.004 | inactive: 0.054 | inactive: -0.03 | inactive: 0.011 | inactive: 0.03 | inactive: 0.004 | inactive: 0.023 | inactive: 0.097 | inactive: 0.054
11 | MARCHF5 (UniProt Q9NX47) | inactive: -0.004 | inactive: -0.125 | inactive: -0.018 | inactive: 0 | inactive: -0.013 | inactive: -0.022 | inactive: -0.036 | inactive: -0.03 | inactive: 0.043 | inactive: 0.078 | inactive: 0.026 | inactive: 0.001 | inactive: 0.059 | inactive: -0.053 | inactive: 0.003 | inactive: -0.099 | inactive: -0.104 | inactive: 0.026 | inactive: -0.02 | inactive: -0.002
12 | MAML1 (UniProt Q92585) | inactive: -0.009 | inactive: 0.007 | inactive: -0.026 | inactive: -0.004 | inactive: -0.023 | inactive: 0.084 | inactive: 0.275 | inactive: -0.065 | inactive: 0.009 | inactive: 0.02 | inactive: -0.004 |  | inactive: 0.025 | inactive: -0.014 | inactive: 0.013 | inactive: 0.078 | inactive: 0.003 | inactive: -0.13 | inactive: -0.138 | 
13 | MAML2 (UniProt Q8IZL2) | inactive: 0.051 | inactive: -0.107 | inactive: -0.017 | inactive: -0.064 | inactive: 0.06 | inactive: -0.02 | inactive: 0.043 | inactive: -0.28 | inactive: 0.024 | inactive: 0.041 | inactive: 0.12 | inactive: -0.286 | inactive: -0.049 | inactive: -0.051 | inactive: -0.08 | inactive: -0.021 | inactive: 0.118 | inactive: 0.001 | inactive: 0.047 | inactive: -0.115

Some of the entries so far, with tabs:
Row	Target	log2 fold change [1]	log2 fold change [2]	log2 fold change [3]	log2 fold change [4]	log2 fold change [5]	log2 fold change [6]	log2 fold change [7]	log2 fold change [8]	log2 fold change [9]	log2 fold change [10]	log2 fold change [11]	log2 fold change [12]	log2 fold change [13]	log2 fold change [14]	log2 fold change [15]	log2 fold change [16]	log2 fold change [17]	log2 fold change [18]	log2 fold change [19]	log2 fold change [20]
10	MAGEA4 (UniProt P43358)	inactive: 0.004	inactive: 0.028	inactive: 0.015	inactive: 0.095		inactive: -0.015	inactive: -0.078	inactive: -0.024	inactive: -0.049	inactive: 0.024		inactive: -0.004	inactive: 0.054	inactive: -0.03	inactive: 0.011	inactive: 0.03	inactive: 0.004	inactive: 0.023	inactive: 0.097	inactive: 0.054
11	MARCHF5 (UniProt Q9NX47)	inactive: -0.004	inactive: -0.125	inactive: -0.018	inactive: 0	inactive: -0.013	inactive: -0.022	inactive: -0.036	inactive: -0.03	inactive: 0.043	inactive: 0.078	inactive: 0.026	inactive: 0.001	inactive: 0.059	inactive: -0.053	inactive: 0.003	inactive: -0.099	inactive: -0.104	inactive: 0.026	inactive: -0.02	inactive: -0.002
